Patent US20240108662A1, “ENGINEERED CELLS FUNCTIONALIZED WITH IMMUNE CHECKPOINT MOLECULES AND USES THEREOF” (The University of North Carolina at Chapel Hill, priority 2020, published 2024)

Experiment: Proteomic analysis of native murine pancreata and decelled pancreatic ECM (Table 1)
Parameters: species or system mouse
Conditions: for Pancreatic ECM: Mean of log2(intensities): abundance of the listed protein in decelled pancreatic ECM; for Native pancreas tissue: Mean of log2(intensities): abundance of the listed protein in native murine pancreas tissue

A2A5R2
Pancreatic ECM: Mean of log2(intensities): 24.24 a.u.
Native pancreas tissue: Mean of log2(intensities): 21.24 a.u.

E9PZJ8
Pancreatic ECM: Mean of log2(intensities): 25.52 a.u.
Native pancreas tissue: Mean of log2(intensities): 22.55 a.u.

E9Q4Z2
Pancreatic ECM: Mean of log2(intensities): 25.49 a.u.
Native pancreas tissue: Mean of log2(intensities): 22.11 a.u.

O35129
Mean of log2(intensities) (Native pancreas tissue): 28.74 a.u.
Mean of log2(intensities) (Pancreatic ECM (decelled)): 30.48 a.u.

P02463
Pancreatic ECM: Mean of log2(intensities): 31.70 a.u.
Native pancreas tissue: Mean of log2(intensities): 28.24 a.u.

P02468
Pancreatic ECM: Mean of log2(intensities): 29.87 a.u.
Native pancreas tissue: Mean of log2(intensities): 28.48 a.u.

P35293
Mean of log2(intensities) (Native pancreas tissue): 26.74 a.u.
Mean of log2(intensities) (Pancreatic ECM (decelled)): 28.70 a.u.

P42227
Mean of log2(intensities) (Native pancreas tissue): 21.60 a.u.
Mean of log2(intensities) (Pancreatic ECM (decelled)): 23.98 a.u.

P61620;Q9JLR1
Mean of log2(intensities) (Native pancreas tissue): 31.46 a.u.
Mean of log2(intensities) (Pancreatic ECM (decelled)): 33.76 a.u.

P70227
Pancreatic ECM: Mean of log2(intensities): 25.73 a.u.
Native pancreas tissue: Mean of log2(intensities): 21.85 a.u.

Q6A009
Pancreatic ECM: Mean of log2(intensities): 25.83 a.u.
Native pancreas tissue: Mean of log2(intensities): 21.11 a.u.

Q6NS46
Pancreatic ECM: Mean of log2(intensities): 26.22 a.u.
Native pancreas tissue: Mean of log2(intensities): 21.11 a.u.

Q6PHN9
Pancreatic ECM: Mean of log2(intensities): 24.73 a.u.
Native pancreas tissue: Mean of log2(intensities): 21.78 a.u.

Q6PHZ2
Pancreatic ECM: Mean of log2(intensities): 25.75 a.u.
Native pancreas tissue: Mean of log2(intensities): 21.45 a.u.

Q8BVY0
Pancreatic ECM: Mean of log2(intensities): 26.14 a.u.
Native pancreas tissue: Mean of log2(intensities): 21.42 a.u.

Q8BWW4
Pancreatic ECM: Mean of log2(intensities): 25.03 a.u.
Native pancreas tissue: Mean of log2(intensities): 21.60 a.u.

Q8VDB2
Mean of log2(intensities) (Native pancreas tissue): 21.49 a.u.
Mean of log2(intensities) (Pancreatic ECM (decelled)): 24.01 a.u.

Q8VEK3
Pancreatic ECM: Mean of log2(intensities): 29.90 a.u.
Native pancreas tissue: Mean of log2(intensities): 28.28 a.u.

Q9CR57
Mean of log2(intensities) (Native pancreas tissue): 31.06 a.u.
Mean of log2(intensities) (Pancreatic ECM (decelled)): 33.25 a.u.

Q9WV70
Mean of log2(intensities) (Native pancreas tissue): 21.56 a.u.
Mean of log2(intensities) (Pancreatic ECM (decelled)): 24.16 a.u.

Q9Z329
Pancreatic ECM: Mean of log2(intensities): 26.22 a.u.
Native pancreas tissue: Mean of log2(intensities): 21.31 a.u.

Q80TL7
Pancreatic ECM: Mean of log2(intensities): 24.71 a.u.
Native pancreas tissue: Mean of log2(intensities): 21.45 a.u.

Q91VE6
Pancreatic ECM: Mean of log2(intensities): 25.52 a.u.
Native pancreas tissue: Mean of log2(intensities): 21.74 a.u.

Q570Y9
Mean of log2(intensities) (Native pancreas tissue): 23.97 a.u.
Mean of log2(intensities) (Pancreatic ECM (decelled)): 25.58 a.u.

Q01149
Pancreatic ECM: Mean of log2(intensities): 34.11 a.u.
Native pancreas tissue: Mean of log2(intensities): 29.57 a.u.

Q09143
Mean of log2(intensities) (Native pancreas tissue): 24.66 a.u.
Mean of log2(intensities) (Pancreatic ECM (decelled)): 26.76 a.u.

Q60997
Pancreatic ECM: Mean of log2(intensities): 33.47 a.u.
Native pancreas tissue: Mean of log2(intensities): 30.73 a.u.

Q61102
Mean of log2(intensities) (Native pancreas tissue): 23.88 a.u.
Mean of log2(intensities) (Pancreatic ECM (decelled)): 25.63 a.u.

Q61879
Pancreatic ECM: Mean of log2(intensities): 26.24 a.u.
Native pancreas tissue: Mean of log2(intensities): 21.62 a.u.
